Test results as given in the supplement of paper PMC9578143, “Small-Molecule Ebselen Binds to YTHDF Proteins Interfering with the Recognition of N^6-Methyladenosine-Modified RNAs” (ACS Pharmacology & Translational Science, 2022).
The list shows a part of the results. Baselines shift from plate to plate; read single values as rough.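 Hits were defined as a z-score below −3.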

Biological target: T1, YTHDF1 YTH domain (aa 365-554) (UniProt Q9BYJ9)
T1 sequence (whole entry): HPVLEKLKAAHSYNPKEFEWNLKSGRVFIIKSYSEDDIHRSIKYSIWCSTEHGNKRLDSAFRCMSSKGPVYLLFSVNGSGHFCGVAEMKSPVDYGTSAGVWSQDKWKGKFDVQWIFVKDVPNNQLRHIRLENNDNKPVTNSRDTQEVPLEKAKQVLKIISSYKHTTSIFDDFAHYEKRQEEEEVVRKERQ
Experiment: tryptophan fluorescence intensity z-score (mean); higher = higher fluorescence, less quenching (negative = binding / quenching)
Conditions: 10 µM

Question: How did the “tryptophan fluorescence intensity z-score” value turn out when `COc1ccc2c(=O)c(CC(=O)O)coc2c1` (plate: M 15-16) was run?
Answer: The value was inactive: 0.356.

Question: With `CNc1ccccc1C(=O)N1CCc2c([nH]c3ccccc23)C1=O` (plate: M 19-20) as the compound, how does the “tryptophan fluorescence intensity z-score” value read?
Answer: Its value is inactive: 0.327.

Question: With `CCN[C@@H]1C[C@H](N)[C@@H](O[C@H]2OC(CN)=CC[C@H]2N)[C@H](O)[C@H]1O[C@H]1OC[C@](C)(O)[C@H](NC)[C@H]1O` (plate: M 11-12) as the compound, how does the “tryptophan fluorescence intensity z-score” value read?
Answer: Its value is inactive: 0.517.

Question: With `FC(F)(F)COCC(F)(F)F` (plate: M 13-14) as the compound, how does the “tryptophan fluorescence intensity z-score” value read?
Answer: Its value is inactive: 0.0808.

Question: `COC1=C(OC)C(=O)C(C/C=C(\C)CC/C=C(\C)CC/C=C(\C)CC/C=C(/C)CC/C=C(\C)CC/C=C(\C)CC/C=C(\C)CC/C=C(\C)CC/C=C(\C)CCC=C(C)C)=C(C)C1=O` (plate: M 19-20) was tested. Which “tryptophan fluorescence intensity z-score” value did it give?
Answer: The value was inactive: 0.507.

Question: With `C=C(C)[C@@H]1CC=C(CO)CC1` (plate: M 19-20) as the compound, how does the “tryptophan fluorescence intensity z-score” value read?
Answer: Its value is inactive: 0.446.

Question: Which “tryptophan fluorescence intensity z-score” value does the source give for `CC1(C)CC2C1CCC1(C)OC2(C)CCC1O` (stereo unspecified) (plate: M 21-22) here?
Answer: The value was inactive: 0.424.

Question: Which “tryptophan fluorescence intensity z-score” value does the source give for `O=C(c1ccccc1)c1ccc2n1CCC2C(=O)O` (stereo unspecified) (plate: M 9-10) here?
Answer: Its value is inactive: -0.518.

Question: With `CCOC(=O)[C@@](C)(N)Cc1ccc(O)c(O)c1` (plate: M 11-12) as the compound, how does the “tryptophan fluorescence intensity z-score” value read?
Answer: The value was inactive: -0.488.

Question: `COc1c(N2CCNC(C)C2)c(F)cc2c(=O)c(C(=O)O)cn(C3CC3)c12` (stereo unspecified) (plate: M 9-10) was tested. Which “tryptophan fluorescence intensity z-score” value did it give?
Answer: Its value is inactive: -0.273.

Question: Which “tryptophan fluorescence intensity z-score” value does the source give for `N[C@@H](C(=O)O)[C@@H](O)[C@H](O)[C@H](O)CO` (plate: M 17-18) here?
Answer: Its value is inactive: 0.6.

Question: How did the “tryptophan fluorescence intensity z-score” value turn out when `OCc1ccccc1O` (plate: M 5-6) was run?
Answer: Its value is inactive: -0.081.

Question: For `c1ccc(CN(CC2=NCCN2)c2ccccc2)cc1` (plate: M 1-2), which “tryptophan fluorescence intensity z-score” value is on record?
Answer: The value was inactive: 0.273.

Question: Which “tryptophan fluorescence intensity z-score” value does the source give for `Cc1cc(O)c2c(O)c3c(O)cccc3cc2c1` (plate: M 21-22) here?
Answer: The value was inactive: 0.0771.

Question: With `C=CCSCC1Nc2cc(Cl)c(S(N)(=O)=O)cc2S(=O)(=O)N1` (stereo unspecified) (plate: M 5-6) as the compound, how does the “tryptophan fluorescence intensity z-score” value read?
Answer: The value was inactive: 0.0129.

Question: With `CC[C@@H](CO)NCCN[C@@H](CC)CO` (plate: M 3-4) as the compound, how does the “tryptophan fluorescence intensity z-score” value read?
Answer: Its value is inactive: 0.141.

Question: `CCCOc1ccc(C(=O)OCCN(CC)CC)cc1N` (plate: M 11-12) was tested. Which “tryptophan fluorescence intensity z-score” value did it give?
Answer: Its value is inactive: -0.645.

Question: Which “tryptophan fluorescence intensity z-score” value does the source give for `Nc1ccccc1C(=O)CC(N)C(=O)O` (stereo unspecified) (plate: M 17-18) here?
Answer: The value was inactive: 0.416.

Question: For `N=C(N)NCCN1CCCCCCC1` (plate: M 3-4), which “tryptophan fluorescence intensity z-score” value is on record?
Answer: Its value is inactive: 0.225.

Question: How did the “tryptophan fluorescence intensity z-score” value turn out when `CC(CN(C)C)CN1c2ccccc2Sc2ccccc21` (stereo unspecified) (plate: M 5-6) was run?
Answer: The value was inactive: -0.047.

Question: With `CC1(C)[C@@H](OC(=O)CCC(=O)O)CC[C@]2(C)[C@H]3C(=O)C=C4[C@@H]5C[C@@](C)(C(=O)O)CC[C@]5(C)CC[C@@]4(C)[C@]3(C)CC[C@@H]12` (plate: M 13-14) as the compound, how does the “tryptophan fluorescence intensity z-score” value read?
Answer: The value was inactive: 0.696.
